According to PubChem BioAssay AID743255 (National Center for Advancing Translational Sciences (NCATS), 2014):
Values joined by “and” are separate entries in the source; they are usually repeats but may differ in a detail not shown here. Identical values can stand only once. The campaign covered roughly 390,000 compounds. About 910 (0.23%) were called active. Inconclusive results, whose numbers are uncertain, are shown with a selection of clear calls. Calls come from the whole dose curve; as a rule, active = well fitted inhibition curve with a large enough effect; inconclusive = small, poorly fitted or top-dose-only effect; inactive = no such curve, though single readings can be large or run the other way. A potency beside an inconclusive call is a rough fit, not a confirmed value.

Amino acid sequences for entries named in this document (tags omitted). A change or cut given only in a name is not applied to a line headed by its entry.
UniProt O94782: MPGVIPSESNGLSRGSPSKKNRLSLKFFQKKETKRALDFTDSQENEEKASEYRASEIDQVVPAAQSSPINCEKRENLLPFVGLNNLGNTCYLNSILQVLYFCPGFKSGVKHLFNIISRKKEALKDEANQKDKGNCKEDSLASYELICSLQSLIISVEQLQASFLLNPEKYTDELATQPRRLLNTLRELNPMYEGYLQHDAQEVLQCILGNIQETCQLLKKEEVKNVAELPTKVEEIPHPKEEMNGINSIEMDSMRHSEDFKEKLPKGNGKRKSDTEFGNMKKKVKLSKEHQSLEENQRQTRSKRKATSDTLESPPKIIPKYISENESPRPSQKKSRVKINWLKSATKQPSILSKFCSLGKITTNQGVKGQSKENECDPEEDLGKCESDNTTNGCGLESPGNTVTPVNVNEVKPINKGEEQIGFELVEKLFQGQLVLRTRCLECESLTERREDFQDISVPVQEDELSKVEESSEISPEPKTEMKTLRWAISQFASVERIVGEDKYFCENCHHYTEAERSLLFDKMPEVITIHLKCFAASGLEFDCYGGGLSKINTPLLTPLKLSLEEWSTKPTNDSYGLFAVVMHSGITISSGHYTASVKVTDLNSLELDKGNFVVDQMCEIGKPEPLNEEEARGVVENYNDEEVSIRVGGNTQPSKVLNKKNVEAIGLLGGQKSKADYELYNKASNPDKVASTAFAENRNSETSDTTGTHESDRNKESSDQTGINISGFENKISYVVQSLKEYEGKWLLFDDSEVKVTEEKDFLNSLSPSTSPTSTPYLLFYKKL

Each compound was assayed against Ubiquitin carboxyl-terminal hydrolase 1 (Homo sapiens) (UniProt O94782) (assay: Inhibitors of USP1/UAF1: Primary Screen). Settings: recombinant USP1/UAF1, Ub-Rhodamine cleavage fluorescence; activity change, negative = inhibition: at 57.1 µM (top of the series).
Method in brief: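 High-throughput fluorogenic screen: 1nM USP1/UAF1 complex, Ub-Rho substrate 150nM final, 50mM HEPES pH 7.8 with 0.5mM EDTA, 0.1 mg/ml BSA, 1mM TCEP and 0.01% Tween-20.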
% is set by controls: 0 for no effect and ±100 for the full control effect; potency is the fitted concentration of half-maximal effect.
Note: nearly all actives have a fitted effect of over 60% in size.

Row | Compound | Potency | activity change, negative = inhibition
1 | CCN(CC)c1ccc(C(=C2C=CC(=[N+](CC)CC)C=C2)c2ccc(N(CC)CC)cc2)cc1 | inconclusive: 35.5 µM [inhibitor, partial curve] | 
2 | CCc1cccc(C)c1NC(=O)CSc1n[nH]c(-c2ccccc2)n1 |  | inactive: -20.2%
3 | COc1ccc(-c2onc(C)c2-c2ccc(C(=O)OC(C)C)o2)c(O)c1 | inconclusive: 44.7 µM [inhibitor, partial curve] | 
4 | CC(=O)Nc1ccc(/C(C)=N/Nc2nc(Nc3cccc4ccccc34)nc(N3CCOCC3)n2)cc1 |  | inactive: -17.8%
5 | CN(C(=O)c1ccc(NC(=O)Cc2ccc(NC(=O)C3CCCN(C(=O)C4CCC4)C3)cc2)cc1)C1CC1 (centres undefined) | inconclusive: 44.7 µM [inhibitor, single point] | 
6 | Cc1ccc2[nH]c3c(c2c1)CCN1C(=O)OC(C)(C)C31C (centres undefined) | inconclusive: 0.708 µM [inhibitor, full curve] | 
7 | CC(C)(C)c1ccc(NC(=O)NCc2ccco2)cc1 | inconclusive: 3.55 µM [inhibitor, partial curve] | 
8 | COc1ccc(-c2sc3ccc(N4CCOCC4)cc3c2C#CC(C)(C)O)cc1 | inconclusive: 10 µM [inhibitor, partial curve] | 
9 | CCc1ccc(-c2nc(CS(=O)CC(=O)NCc3ccco3)c(C)o2)cc1 (centres undefined) | inconclusive: 50.1 µM [inhibitor, partial curve, poor fit] | 
10 | Cc1nn(C(C)C(=O)NCc2ccco2)c(=O)c2nn(-c3ccccc3)c(C)c12 (centres undefined) | inconclusive: 3.55 µM [inhibitor, partial curve] | 
11 | COc1ccc([C@H]2C=C3CN(C(=O)OC(C)(C)C)S(=O)(=O)[C@H]3C[C@H]2OC(=O)c2ccc(C(F)(F)F)cc2)cc1 | inconclusive: 70.8 µM [inhibitor, partial curve, poor fit] | 
12 | Cc1cnc(NC(=O)CSc2ncc(-c3ccccc3)n2Cc2ccco2)s1 | inconclusive: 44.7 µM [inhibitor, partial curve] | 
13 | O=C(c1ccco1)c1coc2c1cc(O)c1ccccc12 | inconclusive: 44.7 µM [inhibitor, partial curve] | 
14 | Cn1c(O)c(/C=N/NC(=O)c2cc3ccccc3cc2O)c2ccccc21 | inconclusive: 7.08 µM [inhibitor, partial curve] | 
15 | CCN(CC)C(=O)c1nc[nH]c1C(=O)N(CC)CC | inconclusive: 1.12 µM [inhibitor, full curve, poor fit] | 
16 | CCCCNC(=O)c1nn2c(C(F)(F)F)cc(-c3ccccc3)nc2c1Br | inconclusive: 8.91 µM [inhibitor, partial curve, poor fit] | 
17 | CN1CCN(c2nc(-c3cccs3)cs2)CC1 |  | inactive: -2.56%
18 | COc1ccc2c3c(cccc13)C(=O)CC2 | inconclusive: 35.5 µM [inhibitor, partial curve, poor fit] | 
19 | Oc1ccc(NCc2ccccc2OCc2ccccc2)cc1 | inconclusive: 31.6 µM [inhibitor, partial curve, poor fit] and inconclusive: 35.5 µM [inhibitor, partial curve, poor fit] | 
20 | CCOc1ccc(CNC(=O)c2cc3cc(S(=O)(=O)N4CCCCC4)ccc3n2C)cc1 | inconclusive: 0.794 µM [inhibitor, full curve, poor fit] | 

Row | Compound | Potency | activity change, negative = inhibition
21 | CCOc1cc(/C=N/NC(=O)COc2ccccc2C)ccc1OC(=O)c1cccs1 | inconclusive: 22.4 µM [inhibitor, single point] | 
22 | COc1ccccc1C(C)Nc1nc(-c2cccnc2)nc2ccccc12 (centres undefined) | inconclusive: 0.251 µM [inhibitor, full curve, poor fit] | 
23 | COc1ccc(NC(=O)C(NS(=O)(=O)c2cccc3nsnc23)C(C)C)cc1OC (centres undefined) | inconclusive: 0.562 µM [inhibitor, full curve, poor fit] | 
24 | COc1ccccc1N=Cc1nc(-c2ccccc2)oc1OC(C)=O |  | inactive: -17.4%
25 | Cc1nn(-c2ccccc2)c(N2CCCC2)c1/C=N/Nc1ccc(S(N)(=O)=O)cc1[N+](=O)[O-] |  | inactive: -3.65%
26 | C=CCN(CC=C)CCOc1cccc2ccccc12 | inconclusive: 0.282 µM [inhibitor, full curve, poor fit] | 
27 | Cc1ccc2onc(CC(=O)N3CCN(c4ccc(F)cc4)CC3)c2c1 |  | inactive: 2.12%
28 | CCn1c(=O)c(C(=O)CN(C)CC(=O)Nc2ccccc2Br)c(N)n(Cc2ccccc2)c1=O |  | inactive: -13.4%
29 | CC(=O)c1cccc(OCC(=O)N(C)CC(=O)Nc2ccc(F)cc2)c1 |  | inactive: -17.2%
30 | Cc1nn2c(=S)[nH]nc2[nH]c1=O |  | inactive: -8.23%
31 | O=C(N/N=C/c1c(O)ccc2ccccc12)c1[nH]ncc1Br | inconclusive: 39.8 µM [inhibitor, partial curve] | 
32 | CCOC(=O)CSc1nnc(CSc2nc3ccccc3s2)n1C | inconclusive: 22.4 µM [inhibitor, partial curve] | 
33 | CCOc1cc(/C=C2\C(=O)N(c3cccc(C(F)(F)F)c3)C(=O)c3ccccc32)ccc1O | inconclusive: 22.4 µM [inhibitor, partial curve] | 
34 | CC(=O)c1cccc(NC(=O)C(C)n2c(=O)cc(C)c3c(C)nn(-c4ccccc4)c32)c1 (centres undefined) | inconclusive: 35.5 µM [inhibitor, partial curve, poor fit] | 
35 | O=C1CCCS(=O)(=O)c2ccccc21 | inconclusive: 0.708 µM [inhibitor, full curve, poor fit] | 
36 | C=Cc1ccc(Cn2c(C(=O)O)c(CNC3CCCCC3)c3ccc(C)cc32)cc1 | inconclusive: 5.62 µM [inhibitor, partial curve] | 
37 | COc1cc(C(=O)N2CCN(c3cccc(Cl)c3)CC2)ccc1OCC(=O)N1CCOCC1 | inconclusive: 0.316 µM [inhibitor, full curve, poor fit] | 
38 | COc1ccc(CCn2c(=O)c3cccnc3n(CC(=O)Nc3ccc(C)c(F)c3)c2=O)cc1OC | inconclusive: 79.4 µM [inhibitor, partial curve, poor fit] | 
39 | CS(=O)(=O)Nc1ccc(S(=O)(=O)N2CCCCCC2)cc1 | inconclusive: 44.7 µM [inhibitor, partial curve, poor fit] | 
